{"source": "ChEMBL document CHEMBL3774357", "about": "“Discovery of potent and selective CDK8 inhibitors from an HSP90 pharmacophore” (Bioorg Med Chem Lett, 2016)", "test": "physchem", "data": [{"smiles": "Cn1ncc2cc(Cc3n[nH]c4ccc(C(=O)N5CC(O)C5)cc34)ccc21", "values": [{"measurement": "solubility kinetic", "result": "> 200", "unit": "µM"}]}, {"smiles": "Cn1cc(-c2ccc(Cc3n[nH]c4ccc(C(=O)N5CCCC5)cc34)cc2)cn1", "values": [{"measurement": "solubility kinetic", "result": 164, "unit": "µM"}]}]}
